Measured values published in publication PMC4798249.
No constants are given. Whether binding was seen depends on the method and setting. In cells and extracts the contact can be indirect. Some entries that bind do so weakly or less than the wild type.

Amino acid sequences for entries named in this document (tags omitted). A change or cut given only in a name is not applied to a line headed by its entry. Chains listed by the source or under a name are the forms on record and can include a tag or linker.
UniProt Q9YGP5: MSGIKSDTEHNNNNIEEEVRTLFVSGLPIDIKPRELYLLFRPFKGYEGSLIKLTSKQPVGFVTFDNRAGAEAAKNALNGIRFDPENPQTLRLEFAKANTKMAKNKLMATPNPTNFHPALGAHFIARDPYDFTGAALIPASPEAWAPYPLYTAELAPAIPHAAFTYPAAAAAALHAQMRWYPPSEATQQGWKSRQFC
Hermes/Rbpms deletion A (a.a. 101-121 deleted), in vitro translated (Q9YGP5, form named): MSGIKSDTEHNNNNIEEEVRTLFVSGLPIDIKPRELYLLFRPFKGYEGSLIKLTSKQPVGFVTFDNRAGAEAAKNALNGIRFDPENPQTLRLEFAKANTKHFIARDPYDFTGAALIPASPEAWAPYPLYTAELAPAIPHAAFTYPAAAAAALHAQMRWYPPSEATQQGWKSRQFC
Hermes/Rbpms deletion B (a.a. 122-161 deleted), in vitro translated (Q9YGP5, form named): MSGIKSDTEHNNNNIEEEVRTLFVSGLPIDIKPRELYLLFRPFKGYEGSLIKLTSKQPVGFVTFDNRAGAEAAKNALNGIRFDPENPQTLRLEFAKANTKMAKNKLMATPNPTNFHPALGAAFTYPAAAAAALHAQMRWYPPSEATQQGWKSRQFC

What was measured:
Experiment in all cases: co-IP; each 35S-labelled in vitro translated Hermes/Rbpms protein mixed with its myc-tagged counterpart and incubated; immunoprecipitation with anti-Myc antibody; western blotting and autoradiography (PhosphorImager); no nanos RNA present
[1] = target: Hermes/Rbpms deletion A (a.a. 101-121 deleted), in vitro translated (Xenopus) (UniProt Q9YGP5)
[2] = target: Hermes/Rbpms deletion B (a.a. 122-161 deleted), in vitro translated (Xenopus) (UniProt Q9YGP5)
[3] = target: Hermes/Rbpms deletion C (a.a. 164-198 deleted; missing the last 34 amino acids), in vitro translated (Xenopus) (UniProt Q9YGP5)
[4] = target: Hermes/Rbpms, wild type, in vitro translated (myc-tagged copy and untagged copy) (Xenopus) (UniProt Q9YGP5)

## Hermes/Rbpms deletion A (a.a. 101-121 deleted), in vitro translated (from UniProt Q9YGP5 1-196)
[1]
  binding: binds

## Hermes/Rbpms deletion B (a.a. 122-161 deleted), in vitro translated (from UniProt Q9YGP5 1-196)
[2]
  binding: binds

## Hermes/Rbpms deletion C (a.a. 164-198 deleted; missing the last 34 amino acids), in vitro translated (from UniProt Q9YGP5 1-163) (domain or fragment)
[3]
  binding: no binding

## Hermes/Rbpms, wild type, in vitro translated (myc-tagged copy and untagged copy) (from UniProt Q9YGP5 1-196)
[4]
  binding: binds
